We go through 1 compound from patent publication US11602538B2, “Prophylaxis and treatment of cognitive dysfunction and decline” (The Florey Institute of Neuroscience and Mental Health, priority 2017, dated 2023).

The data set is described as follows: LA-ICPMS brain metal analysis (zinc, copper, iron) after TBI. It counts as in vivo, mouse. On the procedure: Three groups of animals were subjected to TBI as separate experiments. The first group of animals were treated daily with 2% trehalose in SSV solution at 0.1 ml per 10 g body weight via oral gavage for a period of 31 days or SSV solution following the TBI. […] The second groups of animals underwent an identical dosing procedure but were treated with either SSV or maltose as a disaccharide control for trehalose. […] A further group of animals was pre-treated with trehalose prior to TBI. These pre-treated mice received a daily treatment of 2% trehalose in SSV solution at 0.1 ml per 10 g body weight via oral gavage for 7 days prior to TBI. Following TBI, these animals received SSV solution only for the remaining duration of the experiment.
A comprehensive description of laser ablation-inductively coupled plasma mass spectrometry (LA-ICPMS) procedure of TBI mouse tissue has been previously published. Briefly, Trehalose treated and non-treated animals (n=5 per group) were euthanized at 24 hr, 72 hr, 7 day, 14 day and 28 day-post TBI surgeries. Tissue was prepared as previously described and was subjected to LA-ICPMS.
For LA-ICPMS samples, statistical analysis was carried out in Prism 7 (Graph-Pad) software. Analysis was carried out with a two-tailed t test with the level of significance set at p=0.05. For multiple comparisons two-way ANOVA was used to identify significant differences between ipsilateral and contralateral ROI's. For western blot analysis, images were produced using Image Studio Lite (version 4.0.21, LI-COR Biosciences) and subsequent statistical analysis was carried out in Prism 7 (Graph-Pad). All behavioral analysis was performed using Prism 7 (Graph-Pad).

Molecules are shown by their SMILES.

`OC[C@H]1O[C@H](O[C@H]2O[C@H](CO)[C@@H](O)[C@H](O)[C@H]2O)[C@H](O)[C@@H](O)[C@@H]1O` [trehalose]: the copper concentration entry (day 7, contralateral ROI3 and entire hemisphere) is given as “significant increase”. The “copper concentration, intra-day” value (day 7, ipsilateral ROI1, ROI2 and entire ipsilateral hemisphere, not observed in SSV mice) was “significant intra-day increases”. The iron result reads like this: (entire contralateral hemisphere at day fourteen) “significant increase”; (ipsilateral ROI1 at day 14, trehalose vs SSV) “significant increase”. For the same compound, the “overall change in zinc concentration” value (treated after TBI, any region, ipsilateral or contralateral cortex, vs SSV) is reported as “no significant overall change”. The “intra-day changes in zinc” value (treated after TBI, vs SSV) is reported as “Neither were there any significant intra-day changes”.
